The target in the experiment is T1, Slm9-3XFLAG (S. pombe) (UniProt O74309).
T1 sequence: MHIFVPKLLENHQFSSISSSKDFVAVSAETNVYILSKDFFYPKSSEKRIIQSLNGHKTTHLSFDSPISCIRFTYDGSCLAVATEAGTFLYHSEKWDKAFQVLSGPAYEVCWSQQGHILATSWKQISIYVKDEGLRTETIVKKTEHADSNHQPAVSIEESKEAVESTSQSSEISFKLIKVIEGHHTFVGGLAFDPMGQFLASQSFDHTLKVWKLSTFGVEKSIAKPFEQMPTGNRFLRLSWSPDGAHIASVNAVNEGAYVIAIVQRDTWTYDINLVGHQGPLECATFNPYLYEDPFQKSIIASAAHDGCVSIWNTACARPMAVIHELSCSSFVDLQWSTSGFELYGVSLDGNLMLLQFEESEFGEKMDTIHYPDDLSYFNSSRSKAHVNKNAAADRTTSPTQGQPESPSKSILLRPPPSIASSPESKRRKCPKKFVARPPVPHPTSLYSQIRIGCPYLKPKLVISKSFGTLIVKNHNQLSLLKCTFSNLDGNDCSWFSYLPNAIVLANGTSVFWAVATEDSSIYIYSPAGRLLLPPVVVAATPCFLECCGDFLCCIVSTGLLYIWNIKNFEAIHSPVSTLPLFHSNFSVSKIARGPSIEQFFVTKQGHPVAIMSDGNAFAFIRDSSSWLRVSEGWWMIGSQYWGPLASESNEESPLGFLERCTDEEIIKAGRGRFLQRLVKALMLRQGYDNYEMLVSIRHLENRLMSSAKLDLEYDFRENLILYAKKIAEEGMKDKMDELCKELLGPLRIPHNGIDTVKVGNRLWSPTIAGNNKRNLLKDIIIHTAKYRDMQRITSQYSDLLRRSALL
As to the kind of experiment: affinity purification with mass spectrometry; extracts from 5 g of cells expressing Slm9-FLAG, Dynabeads coupled to anti-FLAG M2 antibody for 15 mins, Benzonase treatment, on-bead tryptic digestion, LC-MS/MS; listed proteins found in at least two independent purifications and absent from four control purifications from untagged cells.

These are yes or no findings as the source states them, for the method shown. Binding seen in cells or lysates may run through a third protein. A yes stands for co-enrichment or nearness to the bait. Other partners may have been found. Where a sequence is shown, tags or fusion partners need not be part of it.

B1: Pgk1, phosphoglycerate kinase (protein, UniProt O60101 1-414)
chain: MSLSTKLAITDVDLKGKNVLIRVDFNVPLDGDRITNNARIVGALPTIKYALEQQPKAVILMSHLGRPNGARVAKYSLKPVAAELSKLLGKPVKFLDDCVGPEVEKACKEAKGGEVILLENLRFHIEEEGSAKVDGKKVKADASAVEAFRKSLTSLGDIFVNDAFGTAHRAHSSMVGVDLPRVSGFLMKKELDYFSKALENPARPFLAILGGAKVADKIQLIDNLLDKVNRLIICGGMAFTFLKVLNGMKIGDSLFDEAGSKNVESMMAKAKKNNVEVFLPVDFVTADKFDKDAKVGSATAEEGIPDGWMGLDCGPKSSAKFAEVITTSKTIVWNGPAGVFEFDNFAKGTKSMLDACVKTCEAGNVVIVGGGDTATVAKKYGKEDALSHVSTGGGASLELLEGKALPGVVALSSK
Take B1: the binding result was “binds”.

B2: SPCC1827.06c, aspartate semialdehyde dehydrogenase (protein, UniProt P78780 1-357)
chain: MAIKKVGILGATGTVGQRFITLLSDHPEFKIAVLGASARSAGKPYAVATKWKQSIAMPKEISQMSVKACDPKEFSECDIVFSGLDADFAGEIEKSFRDANLVIVSNAKNYRREPTVPLVVPTVNTDHLDVIKYQRQENKLDRGCIITNSNCSTAAVVVPLKALQDAFGPIAQTNVVSMQAISGAGYPGVSSLDILDNIVPFIGGEEEKIEWETRKILGSVNSTISGYELTDNVVSAQCNRVPVIDGHLMCISVKFAKTSPTPDQVREVLANYVSEPQKLGCYSAPKQAIYVFDDSTPDRPQPRLDRNNENGYAVSVGRIRSDSIFDIKFVSLVHNTVLGAAGAGILNAEVAVKKGLM
In the case of B2, the binding entry is listed as “binds”.

B3: Cct4, chaperonin-containing T-complex delta subunit (protein, UniProt P50999 1-527)
chain: MSKAATVPVAFQDREKPQEVRLSNIMAARSVADAIRTSLGPKGMDKMIQTGKGEVILTNDGATILKHLSVLHPAAKMLVDLSAAQDVEAGDGTTSVVILAGSMLACAEKLLKKGIHPTVIAESFQRAAGFTVDCMKENALAIELSDRESLLRAATTSLNSKIVSQYSNLLAPIAVDAVLKVIDPRVATNVDLKDIRIVKKLGGIIDDTELIPGLALTQTAVKSAGGPTRIEKANIALIQFQLSPPKPDMENQVVVNDYRQMDKILKEERQYLLNMCKKIKKAGANVILIQKSILRDAVNDLALHFLAKLKIMVIKDIERDEVEFICKSTGCKPIADIESFAEDKLGHADLVEETSSSGEKIVKFSGVKNAGKTVSILCRGANLLTLEEAERSLHDALCVIRCLVKQRALIAGGGSPEIEAAQRLLEHARQLEGREAICIRAFSEALEIIPVTLAENAGLNAIQVVTELRSRHANGEKTAGINVRKGIVTNILEENVLQPLLVNISAIQLAAETTKMIMKIDDITLAR
On to B3, for which the binding result was “binds”.

B4: Hip4 (SPBC947.08c), Hpc2-related protein (protein, UniProt O43083 1-338)
chain: MSLLSGDQRIICLEIPLQGKENVHINFAKEVEKLYGPSVQENSKKNDLSDSADSEGESTHVDEQQAANGAADGTQTIKKKKRKRRYADEYYDRTDPFIDDAELYIEEKAAATKDGFFVFSGPLVAEGDTVKIERSKKTKKKKKTSLSNATHPAPAVSAVVASADASFDDSRDIESEDEQPLRTLSIEMAAKNALKEAKRENAKVPKDVSKKEAKTTKSKEKATKKTSSSVPKQSTGENTKKAVKLETPLTSTPPIPPLSEPKHSPATVNEHISPPSALTNPSTEELKPSTSLPIDQGNASVVSKPTQQVSIVLSQNASLPVDEHQAEPEKSIPTSSIP
With B4, the binding result is recorded as “binds”.

B5: Rpt3, 19S proteasome regulatory subunit (protein, UniProt O74894 1-389)
chain: MNSTEEIDLYNRWKALERQLEMLDLQEGFIKEDCKSLKRELIRAQEEVKRIQSVPLVIGQFLEAIDQNTAIVGSTTGSNYVVRILSTLDRELLKPSASVALQRHSNALVDILPPEADSSISMLRPDERPDVSYADVGGLDVQKQEVREAVELPLTQGDLYRQIGIDPPRGVLLYGPPGTGKTMLVKAVANSTAANFIRVVGSEFVQKYLGEGPRMVRDVFRMARENAPAIIFIDEIDAIATKRFDAQTGADREVQRILIELLTQMDGFDQGANVKVIMATNRADTLDPALLRPGRLDRKIEFPSYRDRRQRRLVFQTITAKMLLSPEVDLDTFIMRPDASSGAQIAAIMQDAGLLAVRKSRGVILQSDIEEAYARAVKPTDMEQFAFYK
In the case of B5, the binding result is on record as “binds”.

B6: Ths1, threonine-tRNA ligase (protein, UniProt P87144 1-703)
chain: MSAAAVKGVQASLDNLSLEIPFIQHRLDLFDKLQKEYKESLATKPREEIDITLPDGKVIKGTSWETTPISIAASISKGLADRVTVAIVNGEPWDLTRPLEASCTLKLCDFNDPEGKRVFWHSSAHILGEATELSFHCHLCIGPPTDEGFFYEMGIDNGRVITNDDYSSIESYAKQAIKQKQPFERLVISKEGLLEMFRYNKYKQYIIQTKIPDGASTTVYRCGPLIDLCTGPHVPHTGRIKSFAVTKNSSSYFLGDAKNDSLQRVYGISFPDNKQMQEYKTFLAEAAKRDHRKIGRDQELFFFNEISPGSCFFLPHGARIYNTLLKYMRYQYSKRGYQEVITPNMYNVNLWKTSGHWNNYSENMFSFDIEKEKYALKPMNCPGHCVMFKSRDRSYRDLPWRVADFGVLHRNEFSGALSGLTRVRRFQQDDAHIFCTPDQVRSEIEGCFDFLKEVYGTFGFTFHLELSTRPEEKYLGDLATWDKAEAQLKAALDASGYKWELNAGDGAFYGPKIDITVFDALKRQHQCATIQLDFQLPERFQLEFHAPASAEEAKESGNNNKYTRPVMVHRAILGSLERMIAILTEHYAGKWPFWMSPRQVCIIPVSAAAYNYADKVHNILSEADIFVDTDKSDNTLPKKIRNAQLAQYNFIFVVGAEEESTNSVNVRNRDDPKKQSKGSTVAVEEVVKKLLKLKESKSLINDL
As to B6, the binding result is recorded as “binds”.

B7: Rpt4, 19S proteasome regulatory subunit (protein, UniProt O74445 1-388)
chain: MSERDTALEKYKSYLLQHREWDSKLKDLRFGNRDLVKKYDKTEDDIKSLQSVGQIIGEVLKQLDSERFIVKASSGPRYVVGCRNNVDQSHLVQGVRVSLDMTTLTIMRILPREVDPLVYNMSIEDPGDISFAGVGGLNEQIRELREVIELPLKNPELFLRVGIKPPKGVLLYGPPGTGKTLLARAVAASLGVNFLKVVSSAIVDKYIGESARIIREMFGYAKEHEPCVIFMDEIDAIGGRRFSEGTSADREIQRTLMELLNQMDGFDYLGQTKIIMATNRPDTLDPALLRPGRLDRKIEIPLPNEVGRMEILKIHLEKVSKQGEIDYEALVKLTDGTNGADLRNVVTEAGFIAIKEDRDYVIQSDLMSAARKVADLKKLEGTIDYQKL
B7: the binding entry is reported as “binds”.

B8: SPAC17A5.15c, glutamate-tRNA ligase (protein, UniProt O13775 1-716)
chain: MSVSVALKAKPIAYGAVACANYVNLSGAGSISVKYEDVALLDKQNKESNVSIQLNGSDSPVFGSKLALQTFSQVYPKLFIGENDRSLVESWVETASALAGNHNFLELSSLLAQLDDHLIMRSLFVGYSLTSADFSIWGALKSNNMAAGAVRTGQYFNLARWYKFMDSQNAVSVTMEEFTKAVNISKKQKSSGPNYEIGLPDAIDGKVVTRFPPEPSGYLHIGHAKAALLNQYFANKYHGKLIVRFDDTNPSKENSEFQDAILEDVALLGIKPDVVTYTSDYLDTIHQYCVDMIKSGQAYADDTDVETMRHERTEGIPSKHRDRPIEESLEILSEMDKGSDVGLKNCIRAKISYENPNKAMRDPVIYRCNLLPHHRTGTKYRAYPTYDFACPIVDSLEGVTHALRTTEYRDRNPLYQWMIKAMNLRKIHVWEFSRMNFVRTLLSKRKLTEIVDHGLVWGWDDPRFPTVRGVRRRGMTIEALQQYIVSQGPSKNILTLDWTSFWATNKKIIDPVAPRHTAVESGDVVKATIVNGPAAPYAEDRPRHKKNPELGNKKSIFANEILIEQADAQSFKQDEEVTLMDWGNAYVREINRDASGKVTSLKLELHLDGDFKKTEKKVTWLADTEDKTPVDLVDFDYLITKDKLEEGENYKDFLTPQTEFHSPVFADVGIKNLKKGDIIQVERKGYYIVDVPFDGTQAVLFNIPDGKTVNRYGVKN
As for B8, the binding entry is “binds”.

B9: Rpt1, 19S proteasome regulatory subunit (protein, UniProt O42931 1-438)
chain: MPPKEDWEKYQKPVDTEEENDKNPPPLDEGDIELLKSYATGPYARELAAIKEDTEAVLKRINDTVGIKESDTGLAPISFWDVAADRQRMSEEQPLQVARCTKIIENEQSAEKNAYVINLKQIAKFVVSLGERVSPTDIEEGMRVGCDRNKYAIQLPLPPKIDPSVTMMQVEEKPDVTYGDVGGCKEQIERLREVVELPLLSPERFVKLGIDPPKGIMLYGPPGTGKTLCARAVANRTDATFIRVIGSELVQKYVGEGARMVRELFEMARTKKACIIFFDEIDAIGGARFDDGAGGDNEVQRTMLELITQLDGFDPRGNIKVLFATNRPNTLDEALMRPGRIDRKVEFGLPDLEGRAHILRIHAKSMAIDKDIRWELIARLCPSQTGAELRSVCTEAGMFAIRARRRVATEKDFLDAVQKVVKGNQKFSSTADYMNMSS
On to B9, for which the binding entry is “binds”.

B10: Cts1, CTP synthase (protein, UniProt O42644 1-600)
chain: MKYVLVSGGVISGIGKGVIASSTGLLLKTLGLKVTSIKIDPYMNIDAGTMSPLEHGEVFVLNDGGEVDLDLGNYERYLNVTLTHDNNITTGKVYSNVIQKERRGDYLGKTVQIVPHVTNEIQDWVERVARIPVDQSGEEPDVCIVELGGTVGDIESAAFVEAMRQFQFRVGHENFVSIHVSLVPVINGEQKTKPTQQAIRDLRSLGITPDLIACRCKQPLEKSVIDKISLFCHVGPEQVLAVHDVSSTYHVPQLLEDKLLEYLKIRFALDKISVSRELALAGENMWSSWKHLTQGYDHLFKKVTIVLVGKYTHLQDSYISVIKALEHSAMRCGRKLDLQWVEASHLEASTNTSDPLSYHKAWHLVCSANGILVPGGFGSRGVEGMIAAAKWARENNTPYLGICLGMQVAVIEFARSVCGIEGAFSEEFDKECENNVVVYMPEIDKDKLGGTMRLGLRPTFFQPNSEWSKLRKLHKMVDEVLERHRHRYEINPAFVSRLEQGGISFIGKDERGERMEIIEKRDHPYFVGVQYHPEYLSKPLKPSPPIFGLVAASAGLLDEFIQSGEEVEWSNFSHFNAESALADMNDSVEVTEEATVVTIS
Take B10: the binding entry is “binds”.

The record behind these values is PMC2956695.
